This passage reports binding results from article PMC9981285.

The chains behind the UniProt entries cited, without tags or fusion partners.
UniProt P40763: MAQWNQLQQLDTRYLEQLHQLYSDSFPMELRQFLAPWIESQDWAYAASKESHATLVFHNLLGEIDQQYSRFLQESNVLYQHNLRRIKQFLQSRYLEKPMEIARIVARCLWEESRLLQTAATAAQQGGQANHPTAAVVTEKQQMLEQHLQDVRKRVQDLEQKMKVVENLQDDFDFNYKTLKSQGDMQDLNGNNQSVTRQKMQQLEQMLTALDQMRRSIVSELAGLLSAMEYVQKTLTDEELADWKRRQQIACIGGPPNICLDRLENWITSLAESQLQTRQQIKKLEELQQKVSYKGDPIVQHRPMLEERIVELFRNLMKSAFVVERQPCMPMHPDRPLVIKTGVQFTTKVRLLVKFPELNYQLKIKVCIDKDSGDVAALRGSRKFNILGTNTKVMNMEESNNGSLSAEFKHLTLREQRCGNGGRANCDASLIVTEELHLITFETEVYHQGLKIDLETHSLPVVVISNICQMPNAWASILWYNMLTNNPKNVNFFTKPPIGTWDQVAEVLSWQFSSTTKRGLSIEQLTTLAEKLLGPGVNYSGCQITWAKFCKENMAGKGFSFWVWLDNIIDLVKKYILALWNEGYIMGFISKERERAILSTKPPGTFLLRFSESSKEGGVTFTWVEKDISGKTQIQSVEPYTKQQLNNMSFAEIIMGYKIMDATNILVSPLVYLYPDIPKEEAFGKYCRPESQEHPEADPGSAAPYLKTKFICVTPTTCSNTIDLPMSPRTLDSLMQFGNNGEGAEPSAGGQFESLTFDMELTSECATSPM

Results are given in words; binding and its absence hold for the method and conditions named. Binding seen in cells or lysates may run through a third protein. Some binding calls cover weakened binding; strength is not graded here. Tags and fused reporters may be left off the sequences shown.

For this test, the target named is T1, 3 × FLAG-GINS2 (UniProt Q9Y248).
T1 sequence: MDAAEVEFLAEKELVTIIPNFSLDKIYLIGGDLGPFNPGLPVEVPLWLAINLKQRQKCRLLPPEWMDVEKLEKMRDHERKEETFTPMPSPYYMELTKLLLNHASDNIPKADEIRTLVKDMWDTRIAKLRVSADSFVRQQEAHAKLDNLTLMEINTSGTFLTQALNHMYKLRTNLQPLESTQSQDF
Description: co-IP; Co-IP/immunoblotting in HOS cells; FLAG beads on lysates of cells with 3 × FLAG-GINS2. Background: Immunoblotting shows a protein as a band on a membrane.

Turning to STAT3 (from UniProt P40763 1-770), the binding result is given as “binds”.
